These are yes or no findings as the source states them, for the method shown. Binding seen in cells or lysates may run through a third protein. Some entries that bind do so weakly or less than the wild type. Tags and fused reporters may be left off the sequences shown.
Target: T1, FLAG-AP1μ1A (human) (UniProt Q9BXS5)
T1 sequence: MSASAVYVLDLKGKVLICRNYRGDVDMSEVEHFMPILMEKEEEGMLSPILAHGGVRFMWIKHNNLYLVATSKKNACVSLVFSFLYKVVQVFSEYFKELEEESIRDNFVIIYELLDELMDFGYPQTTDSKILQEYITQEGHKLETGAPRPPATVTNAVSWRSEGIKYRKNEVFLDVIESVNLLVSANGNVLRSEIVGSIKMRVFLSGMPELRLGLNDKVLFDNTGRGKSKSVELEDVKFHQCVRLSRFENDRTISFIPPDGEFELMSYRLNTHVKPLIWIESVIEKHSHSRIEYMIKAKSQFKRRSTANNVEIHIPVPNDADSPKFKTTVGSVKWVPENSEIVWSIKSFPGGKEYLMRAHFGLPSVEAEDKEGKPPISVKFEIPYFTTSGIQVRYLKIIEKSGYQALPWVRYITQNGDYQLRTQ
Experiment: co-IP; HEK293 cells co-transfected with myc-AP1S3 and FLAG-AP1M1 constructs; lysates precipitated with anti-FLAG, blotted with anti-myc

binding: binds
B1: wild-type myc-AP1σ1C (protein, UniProt Q96PC3 1-154)
chain: MIHFILLFSRQGKLRLQKWYITLPDKERKKITREIVQIILSRGHRTSSFVDWKELKLVYKRYASLYFCCAIENQDNELLTLEIVHRYVELLDKYFGNVCELDIIFNFEKAYFILDEFIIGGEIQETSKKIAVKAIEDSDMLQEVSTVSQTMGER

From publication PMC5070969
